PMC12679992
Results are given in words; binding and its absence hold for the method and conditions named. Binding can be weak; no strength is given. Tags and fused reporters may be left off the sequences shown.

Chains of the proteins cited; added tags and fusions are not shown. Lines headed by an entry give the natural chain unless they say otherwise; changes in a name come on top.
UniProt P21860: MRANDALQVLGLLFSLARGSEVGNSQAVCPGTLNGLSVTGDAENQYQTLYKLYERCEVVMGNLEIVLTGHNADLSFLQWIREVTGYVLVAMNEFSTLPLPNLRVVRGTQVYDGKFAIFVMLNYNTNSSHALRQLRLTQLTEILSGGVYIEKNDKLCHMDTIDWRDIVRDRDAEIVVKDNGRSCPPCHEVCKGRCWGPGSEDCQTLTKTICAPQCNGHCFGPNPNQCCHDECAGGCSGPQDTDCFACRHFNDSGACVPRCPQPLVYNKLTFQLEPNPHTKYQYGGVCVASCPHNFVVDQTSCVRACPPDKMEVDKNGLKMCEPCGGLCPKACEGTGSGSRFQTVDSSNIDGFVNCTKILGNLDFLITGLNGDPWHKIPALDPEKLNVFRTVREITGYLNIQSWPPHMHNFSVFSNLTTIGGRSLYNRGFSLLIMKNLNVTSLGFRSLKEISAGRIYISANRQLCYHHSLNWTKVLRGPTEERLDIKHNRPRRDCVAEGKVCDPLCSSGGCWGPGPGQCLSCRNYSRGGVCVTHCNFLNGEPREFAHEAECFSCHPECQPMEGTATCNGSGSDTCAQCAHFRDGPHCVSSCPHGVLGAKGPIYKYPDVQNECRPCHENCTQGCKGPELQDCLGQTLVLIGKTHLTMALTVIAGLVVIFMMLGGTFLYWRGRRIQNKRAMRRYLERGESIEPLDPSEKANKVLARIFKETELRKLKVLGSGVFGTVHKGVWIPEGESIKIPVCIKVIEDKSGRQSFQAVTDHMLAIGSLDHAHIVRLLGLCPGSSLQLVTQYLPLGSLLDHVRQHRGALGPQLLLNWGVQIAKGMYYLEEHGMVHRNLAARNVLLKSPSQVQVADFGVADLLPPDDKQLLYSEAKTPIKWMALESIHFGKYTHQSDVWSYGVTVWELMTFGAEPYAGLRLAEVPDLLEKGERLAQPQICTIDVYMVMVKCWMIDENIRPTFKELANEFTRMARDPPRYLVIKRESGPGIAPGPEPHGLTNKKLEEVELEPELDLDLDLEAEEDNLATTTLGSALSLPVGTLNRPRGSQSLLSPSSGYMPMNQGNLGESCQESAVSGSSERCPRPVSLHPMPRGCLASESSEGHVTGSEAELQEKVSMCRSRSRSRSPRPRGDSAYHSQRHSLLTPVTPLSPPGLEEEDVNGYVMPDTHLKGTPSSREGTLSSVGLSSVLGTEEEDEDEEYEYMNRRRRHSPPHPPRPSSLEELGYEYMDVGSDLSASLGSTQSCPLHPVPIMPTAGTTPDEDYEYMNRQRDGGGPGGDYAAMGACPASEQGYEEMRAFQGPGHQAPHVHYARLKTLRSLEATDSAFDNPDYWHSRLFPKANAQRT

Biological target: recombinant ErbB3 (UniProt P21860)
Experiment: pull-down; in vitro binding: 1 µg/ml recombinant ErbB3 with 1 µg/ml recombinant Rabaptin5 in 50 mM Tris pH 7.5, 150 mM NaCl, 1% NP-40, 0.5% sodium deoxycholate, 0.1% SDS, 1 mM EDTA, overnight at 4°C; ErbB3 immunoprecipitated, bound Rabaptin5 detected by blot; both purified

B1: recombinant MBP-Rabaptin5 (protein, UniProt Q15276 1-862)
chain: MAQPGPASQPDVSLQQRVAELEKINAEFLRAQQQLEQEFNQKRAKFKELYLAKEEDLKRQNAVLQAAQDDLGHLRTQLWEAQAEMENIKAIATVSENTKQEAIDEVKRQWREEVASLQAVMKETVRDYEHQFHLRLEQERTQWAQYRESAEREIADLRRRLSEGQEEENLENEMKKAQEDAEKLRSVVMPMEKEIAALKDKLTEAEDKIKELEASKVKELNHYLEAEKSCRTDLEMYVAVLNTQKSVLQEDAEKLRKELHEVCHLLEQERQQHNQLKHTWQKANDQFLESQRLLMRDMQRMEIVLTSEQLRQVEELKKKDQEDDEQQRLNKRKDHKKADVEEEIKIPVVCALTQEESSAQLSNEEEHLDSTRGSVHSLDAGLLLPSGDPFSKSDNDMFKDGLRRAQSTDSLGTSGSLQSKALGYNYKAKSAGNLDESDFGPLVGADSVSENFDTASLGSLQMPSGFMLTKDQERAIKAMTPEQEETASLLSSVTQGMESAYVSPSGYRLVSETEWNLLQKEVHNAGNKLGRRCDMCSNYEKQLQGIQIQEAETRDQVKKLQLMLRQANDQLEKTMKDKQELEDFIKQSSEDSSHQISALVLRAQASEILLEELQQGLSQAKRDVQEQMAVLMQSREQVSEELVRLQKDNDSLQGKHSLHVSLQQAEDFILPDTTEALRELVLKYREDIINVRTAADHVEEKLKAEILFLKEQIQAEQCLKENLEETLQLEIENCKEEIASISSLKAELERIKVEKGQLESTLREKSQQLESLQEIKISLEEQLKKETAAKATVEQLMFEEKNKAQRLQTELDVSEQVQRDFVKLSQTLQVQLERIRQADSLERIRAILNDTKLTDINQLPET
binding: binds
